These are yes or no findings as the source states them, for the method shown. Some results given as binding are weak or reduced against the parent protein; the word gives no strength.
B1: chimeric antibody 37C2D10 (antibody, V domains shown)
VH: QVQLQESGPGLVKPSGTLSLTCAVSGDSISSDNWWNWVRQPPGKGLQWIGEIFHSGRTNYNPSLKSRVTISVDMSKNQFSLKLSSVTAADTAVYFCARDAPNDYGDYGFFDYWGQGILVTVSS
VL: DIVMTQSPLSLPVTPGEPASISCRSSQSLLHSNEYNYLDWYLQKPGQSPQLLIYLGSDRASGVPDRFSGSGSGTDFTLKISRVEAEDVGIYYCMQALQTPYTFGQGTKLEIK
B2: chimeric antibody 43B1A8 (antibody, V domains shown)
VH: QMQLVESGGGAVQPGRSLRLSCAASGFTFRSYDMHWVRQAPGKGLEWVAVIWYDGSNENYADSVKGRFTTSRDNSKNTLFLQMNSLRAEDTAVYYCARSPLWYGEPDDAFDIWGQGTLVTVSS
VL: EIVMTQSPATLSVSPGERATLSCRASQSVSSNLAWYQQKPGQAPRLLISGASTRATGIPARFSGSGSGTDFTLTISSLRSEDFAVYYCQHYNNWPLTFGGGTKVEIK
B3: recombinant fully human antibody 37C2D10-hIgG (antibody, V domains shown)
VH: QVQLQESGPGLVKPSGTLSLTCAVSGDSISSDNWWNWVRQPPGKGLQWIGEIFHSGRTNYNPSLKSRVTISVDMSKNQFSLKLSSVTAADTAVYFCARDAPNDYGDYGFFDYWGQGILVTVSS
VL: DIVMTQSPLSLPVTPGEPASISCRSSQSLLHSNEYNYLDWYLQKPGQSPQLLIYLGSDRASGVPDRFSGSGSGTDFTLKISRVEAEDVGIYYCMQALQTPYTFGQGTKLEIKR

Assays:
[1] = biological target: monkey TSLP-His (cynomolgus monkey, Macaca fascicularis) (cynomolgus monkey (Macaca fascicularis)); experiment: ELISA, monkey TSLP-His coated
[2] = biological target: monkey TSLP-His (cynomolgus monkey, Macaca fascicularis) (cynomolgus monkey (Macaca fascicularis)); experiment: ELISA, hybridoma supernatant
[3] = biological target: monkey TSLP-His (cynomolgus monkey, Macaca fascicularis) (cynomolgus monkey (Macaca fascicularis)); experiment: BLI (Fortebio)

Binder	binding [1]	binding [2]	binding [3]
B1	binds	binds	–
B2	binds	binds	–
B3	binds	–	binds

Source: patent publication US20220363781A1
